Measured values published in PMC12217353.

Amino acid sequences for entries named in this document (tags omitted). A change or cut given only in a name is not applied to a line headed by its entry.
UniProt P13569: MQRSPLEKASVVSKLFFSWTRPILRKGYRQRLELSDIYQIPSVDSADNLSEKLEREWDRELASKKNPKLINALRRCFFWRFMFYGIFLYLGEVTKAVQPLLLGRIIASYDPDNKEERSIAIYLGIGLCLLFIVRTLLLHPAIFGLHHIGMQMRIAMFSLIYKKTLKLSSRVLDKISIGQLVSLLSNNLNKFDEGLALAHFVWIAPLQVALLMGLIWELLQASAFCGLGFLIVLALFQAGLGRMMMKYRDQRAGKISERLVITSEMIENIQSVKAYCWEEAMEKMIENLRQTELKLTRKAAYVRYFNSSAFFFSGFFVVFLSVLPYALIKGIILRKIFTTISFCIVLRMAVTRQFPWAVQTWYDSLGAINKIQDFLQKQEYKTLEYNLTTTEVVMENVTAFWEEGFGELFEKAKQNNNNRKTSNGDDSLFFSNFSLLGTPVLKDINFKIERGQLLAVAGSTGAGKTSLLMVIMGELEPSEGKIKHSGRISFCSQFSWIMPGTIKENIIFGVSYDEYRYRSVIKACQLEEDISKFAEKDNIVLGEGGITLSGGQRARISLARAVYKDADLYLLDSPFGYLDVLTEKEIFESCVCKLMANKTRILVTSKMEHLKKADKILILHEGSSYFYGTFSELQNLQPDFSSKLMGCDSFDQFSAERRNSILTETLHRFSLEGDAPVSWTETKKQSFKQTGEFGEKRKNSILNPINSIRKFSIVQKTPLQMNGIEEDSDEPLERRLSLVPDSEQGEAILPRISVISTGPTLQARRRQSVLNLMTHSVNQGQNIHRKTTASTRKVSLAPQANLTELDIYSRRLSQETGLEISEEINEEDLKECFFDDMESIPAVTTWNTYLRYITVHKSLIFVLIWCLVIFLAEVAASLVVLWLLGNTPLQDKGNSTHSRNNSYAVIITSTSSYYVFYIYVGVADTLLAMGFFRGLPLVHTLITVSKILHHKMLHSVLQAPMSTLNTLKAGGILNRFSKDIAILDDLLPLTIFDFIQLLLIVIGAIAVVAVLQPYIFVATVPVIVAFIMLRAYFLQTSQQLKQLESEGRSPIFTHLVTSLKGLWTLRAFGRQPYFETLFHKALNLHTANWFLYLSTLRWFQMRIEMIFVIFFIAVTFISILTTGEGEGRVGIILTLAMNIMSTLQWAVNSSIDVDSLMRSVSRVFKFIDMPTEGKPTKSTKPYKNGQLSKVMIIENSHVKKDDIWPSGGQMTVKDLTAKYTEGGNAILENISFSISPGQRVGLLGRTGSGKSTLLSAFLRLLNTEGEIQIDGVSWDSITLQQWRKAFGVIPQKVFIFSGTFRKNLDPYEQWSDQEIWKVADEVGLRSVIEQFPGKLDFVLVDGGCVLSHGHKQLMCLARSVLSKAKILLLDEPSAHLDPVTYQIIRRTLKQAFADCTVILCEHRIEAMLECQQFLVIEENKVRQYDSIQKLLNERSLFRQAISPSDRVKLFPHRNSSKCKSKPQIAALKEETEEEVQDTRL
UniProt A0FGR9: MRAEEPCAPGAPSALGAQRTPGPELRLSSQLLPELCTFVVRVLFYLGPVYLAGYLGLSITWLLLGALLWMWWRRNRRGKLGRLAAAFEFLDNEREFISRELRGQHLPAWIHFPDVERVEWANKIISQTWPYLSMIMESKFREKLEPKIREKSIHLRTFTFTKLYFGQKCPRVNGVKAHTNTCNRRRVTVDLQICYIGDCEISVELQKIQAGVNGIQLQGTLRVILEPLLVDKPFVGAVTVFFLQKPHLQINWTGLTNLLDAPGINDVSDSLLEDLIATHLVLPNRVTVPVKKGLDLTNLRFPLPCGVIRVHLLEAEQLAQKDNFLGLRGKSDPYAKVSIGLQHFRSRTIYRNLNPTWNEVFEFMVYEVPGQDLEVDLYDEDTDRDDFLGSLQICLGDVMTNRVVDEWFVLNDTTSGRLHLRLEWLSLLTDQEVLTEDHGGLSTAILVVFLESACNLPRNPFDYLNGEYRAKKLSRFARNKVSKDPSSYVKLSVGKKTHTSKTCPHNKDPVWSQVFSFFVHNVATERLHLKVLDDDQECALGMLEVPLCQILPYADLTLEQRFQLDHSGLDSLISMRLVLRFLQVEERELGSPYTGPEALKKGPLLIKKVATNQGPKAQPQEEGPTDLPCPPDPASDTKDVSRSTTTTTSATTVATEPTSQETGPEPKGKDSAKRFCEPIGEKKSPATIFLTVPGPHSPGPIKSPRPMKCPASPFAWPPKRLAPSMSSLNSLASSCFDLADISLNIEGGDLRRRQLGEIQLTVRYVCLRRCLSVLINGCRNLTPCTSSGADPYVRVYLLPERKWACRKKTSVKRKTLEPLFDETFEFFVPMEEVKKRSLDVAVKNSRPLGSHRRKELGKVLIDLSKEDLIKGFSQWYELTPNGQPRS

Target: CFTR-GFP (UniProt P13569)
Assay: co-IP; lysates of transfected HEK293T cells (PBS with 1% Triton X-100, phosphatase and protease inhibitors, pH 7.4); antibodies overnight at 4 °C, Sepharose beads for 4 h, three washes, blots; some cells co-expressing E-Syt3 or E3C2C, or depleted of PI(4,5)P2 (FRB + FKBP-5PIPase, 0.5 µM rapamycin for 8 min)

Substance: E-Syt3(R852A/R853A/K854A) (from UniProt A0FGR9)
- binding: binds weakly

Results are given in words; binding and its absence hold for the method and conditions named. Binding seen in cells or lysates may run through a third protein. A result given as binding can be weak or reduced; the word gives no strength.
